Test results as given in patent US20230088052A1.

B1: murine monoclonal antibody 25G7 (antibody, V domains shown)
VH: EVQLVESGGGLVKPGGSLKLSCAASGFTFSDYGMHWVRQAPEKGLEWVAFISSGSSIIYYADIVKGRSTISRDNAKNTLFLQMTSLRSEDTAMYYCTRGNKRGFFDYWGQGTILTVSS
VL: QIVLTQSPALMSASPGEKVTMTCNASSSVSYMYWYQRKPRSSPKPWIYLTSNLASGVPVRFSGSGSGTSYSLTISSMEAEDAATYYCQQWRSNPPMLTFGSGTKLEVK
B2: humanized antibody hu25G7 (antibody, human IgG4 S228P, kappa, V domains shown)
VH: EVQLVESGGGLVQPGGSLRLSCAASGFTFSDYGMHWVRQAPGKGLEWVAFISSGSSIIYYADIVKGRSTISRDNAKNSLYLQMNSLRAEDTAVYYCTRGNKRGFFDYWGQGTLVTVSS
VL: EIVLTQSPATLSLSPGERATLSCNASSSVSYMYWYQQKPGQAPRLLIYLTSNLASGIPARFSGSGSGTDFTLTISSLEPEDFAVYYCQQWRSNPPMLTFGGGTKVEIKR
B3: humanized antibody hu7B10 (antibody, human IgG1, kappa, V domains shown)
VH: EVQLVQSGAEVKKPGASVKVSCKASGYTFTSYWMHWVRQAPGQGLEWMGLIHPNSDTTKFSENFKTRVTMTIDTSISTAYMELSRLRSDDTAVYYCAKSKIITTIVARHWYFDVWGQGTTVTVSS
VL: DIVLTQTPLSLSVTPGQPASISCKASQSVDYGGDSYMNWYLQKPGQPPQLLIYAASNLESGVPDRFSGSGSGTDFTLKISRVEAEDVGVYYCQHSNENPPTFGGGTKVEIKR
B4: murine monoclonal antibody 7B10 (antibody, V domains shown)
VH: QVQLQQPGTELLKPGASVSLSCKASGYTFTSYWMHWVKQRPGQGLEWIGLIHPNSDTTKFSENFKTRATLTIDKSSSTAYMKLSSLTSEDSAVYYCAKSKIITTIVARHWYFDVWGTGTTVTVSS
VL: DIVLTQSPPSLAVSLGQRATISCKASQSVDYGGDSYMNWYQQKLGQPPKVLIYAASNLESGIPARFSGSGSGTDFTLNIHPVEEEDVATYYCQHSNENPPTFGGGTKLEIK
B5: human-murine chimeric antibody 25G7-C (antibody, V domains shown)
VH: EVQLVESGGGLVKPGGSLKLSCAASGFTFSDYGMHWVRQAPEKGLEWVAFISSGSSIIYYADIVKGRSTISRDNAKNTLFLQMTSLRSEDTAMYYCTRGNKRGFFDYWGQGTILTVSS
VL: QIVLTQSPALMSASPGEKVTMTCNASSSVSYMYWYQRKPRSSPKPWIYLTSNLASGVPVRFSGSGSGTSYSLTISSMEAEDAATYYCQQWRSNPPMLTFGSGTKLEVK
B6: human-murine chimeric antibody 7B10-C (antibody, V domains shown)
VH: QVQLQQPGTELLKPGASVSLSCKASGYTFTSYWMHWVKQRPGQGLEWIGLIHPNSDTTKFSENFKTRATLTIDKSSSTAYMKLSSLTSEDSAVYYCAKSKIITTIVARHWYFDVWGTGTTVTVSS
VL: DIVLTQSPPSLAVSLGQRATISCKASQSVDYGGDSYMNWYQQKLGQPPKVLIYAASNLESGIPARFSGSGSGTDFTLNIHPVEEEDVATYYCQHSNENPPTFGGGTKLEIK

target: his-tagged rhesus IL-4R recombinant protein (rhesus-IL-4R-his) (rhesus); experiment: ELISA, IL-4R-his coated on the plate

binding, no binding:
B1
B2
B3
B4
B5
B6

These are yes or no findings as the source states them, for the method shown.
